Source: patent US20220251223A1
No constants are given. Whether binding was seen depends on the method and setting. Some binding calls cover weakened binding; strength is not graded here.

Sequences of proteins named here, by UniProt entry; tags and fusion partners are left off.
UniProt P25025: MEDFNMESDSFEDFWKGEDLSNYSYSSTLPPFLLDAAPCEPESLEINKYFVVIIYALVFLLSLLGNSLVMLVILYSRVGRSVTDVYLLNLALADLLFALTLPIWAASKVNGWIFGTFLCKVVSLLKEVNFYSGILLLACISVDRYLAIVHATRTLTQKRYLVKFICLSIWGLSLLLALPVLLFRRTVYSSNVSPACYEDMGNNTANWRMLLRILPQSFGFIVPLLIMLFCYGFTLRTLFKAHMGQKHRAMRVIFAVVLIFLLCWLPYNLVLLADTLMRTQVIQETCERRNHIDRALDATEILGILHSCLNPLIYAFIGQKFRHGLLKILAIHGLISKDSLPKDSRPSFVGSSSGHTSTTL

Tests used:
[1] = target: IL-8R (IL-8RB) expressed on lentivirally transduced HEK 293T cells (UniProt P25025); assay: flow cytometry on transduced HEK 293T cells
[2] = target: IL-8R (IL-8RB) expressed on lentivirally transduced HEK 293T cells (UniProt P25025); assay: flow cytometry binding titration on IL-6R-/IL-8R+ HEK 293T cells
[3] = target: IL-8R (IL-8RB) expressed on lentivirally transduced HEK 293T cells (UniProt P25025); assay: flow cytometry on HEK 293T cells (FIG. 7 legend)

Measured: binding

B1: 10H2 (anti-IL-8RB monoclonal hIgG1 antibody) (antibody, V domains shown)
VH: EVQLVETGGRLVQPKGSLKLSCAVSGITFKTNAMNWVRQAPGKGLEWVARIRTKSYNYATYYADSVKDRFTISRDDSQSILYLQMNNLKTEDTAMYHCVREGRWGQGTLVTVSA
VL: QAVVTQESALTTSPGETVTLTCRSSTGAVTTSNYANWVQEKPDHLFTGLIGGTNNRPPGVPARFSGSLIGDKAALTITGAQIEDEAIYFCALWYSNHLVFGGGTKLTVL
binds: [1] | [2] | [3]
